PubChem BioAssay AID1508588 – Peter MacCallum Cancer Centre – 2020

Assay: 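Genome-wide search for knock-downs that heighten vemurafenib action in melanoma cells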 (primary screen)
System: human WM266.4 melanoma cells (BRAF V600 mutant)
Knock-down reagent: siRNA pool against human genes, 40 nM
Duration: 96 h from transfection to read-out
Challenge: vemurafenib 300 nM (about IC25), added 48 h after transfection, for 48 h; comparison arm got DMSO vehicle only
Detection: 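Cell gain (DAPI nuclei at end minus before drug, mean of two replicates) and medium lactate by absorbance per cell, both as ratio to non-targeting siRNA, also grouped into fold-change classes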
Direction: cell gain with vemurafenib: higher = more cell gain than with non-targeting siRNA; lactate per cell with vemurafenib: higher = more lactate made per cell
Active means: 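Enhancement is called by pairing each knock-down's vehicle-arm and drug-arm fold-change classes for viability or glycolysis; which class combinations qualify is not given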
Meaning of the calls: active = enhances vemurafenib effect; inactive = no enhancement seen
In all, the deposit lists about 18,000 reagents; this is an unselected part. Of all reagents, 790 (4.4%) were called active. 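Calls rest on a combination of fold-change classes in drug and vehicle arms, not all shown here.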 Unmarked entries are inactive.

With knock-down of HOXD1 (homeobox D1) [SID134317161] the results were cell gain with vemurafenib 0.58; lactate per cell with vemurafenib 0.8.
SLC25A47 [SID135621349] showed cell gain with vemurafenib 0.32; lactate per cell with vemurafenib 1.1.
Against LINC01465 (long independently transcribed non-coding RNA 1465) [SID152153790] the deposit lists cell gain with vemurafenib 0.36; lactate per cell with vemurafenib 1.34.
Depletion of DST (dystonin) [SID152154870] resulted in: cell gain with vemurafenib 0.59; lactate per cell with vemurafenib 1.14.
Knock-down of CACNA1E (calcium voltage-gated channel subunit alpha1 E) [SID152153742] resulted in: cell gain with vemurafenib 0.67; lactate per cell with vemurafenib 0.92.
For ZC3H14 (zinc finger CCCH-type containing 14) [SID135622751] the deposit lists cell gain with vemurafenib 0.35; lactate per cell with vemurafenib 1.5.
Depletion of FSD1L (fibronectin type III and SPRY domain containing 1 like) [SID135622810] resulted in: cell gain with vemurafenib 0.02; lactate per cell with vemurafenib 2.79.
PRAMEF1 (PRAME family member 1) [SID134318411] showed cell gain with vemurafenib 0.49; lactate per cell with vemurafenib 0.56.
With knock-down of PRR14L (proline rich 14 like) [SID134322274] the results were cell gain with vemurafenib 0.52; lactate per cell with vemurafenib 0.62.
NGF (nerve growth factor) [SID135623805] scored cell gain with vemurafenib 0.91; lactate per cell with vemurafenib 0.3.
SLC25A29 [SID152152457] scored cell gain with vemurafenib 0.96; lactate per cell with vemurafenib 0.74.
For WFDC8 (WAP four-disulfide core domain 8) [SID152149938] the deposit lists cell gain with vemurafenib 0.41; lactate per cell with vemurafenib 1.39.
IL19 (interleukin 19) [SID152150563] showed cell gain with vemurafenib 0.73; lactate per cell with vemurafenib 0.66.
Against CCNA1 (cyclin A1) [SID152149846] the deposit lists cell gain with vemurafenib 0.6; lactate per cell with vemurafenib 1.01.
With knock-down of BCL2A1 (BCL2 related protein A1) [SID135620659], the record shows cell gain with vemurafenib 0.83; lactate per cell with vemurafenib 0.83.
NDUFB10 (NADH:ubiquinone oxidoreductase subunit B10) [SID152149601] scored cell gain with vemurafenib 0.83; lactate per cell with vemurafenib 1.04.
Silencing of AKAP6 (A-kinase anchoring protein 6) [SID135621586] resulted in: cell gain with vemurafenib 0.2; lactate per cell with vemurafenib 1.15.

Limited to “lactate per cell with vemurafenib” (3 entries from above):
WFDC8 (WAP four-disulfide core domain 8) [SID152149938]	1.39
IL19 (interleukin 19) [SID152150563]	0.66
CCNA1 (cyclin A1) [SID152149846]	1.01

The list goes on.
PTCRA (pre T cell antigen receptor alpha) [SID152148956] showed cell gain with vemurafenib 0; lactate per cell with vemurafenib 2.35.
Depletion of ADGRE5 (adhesion G protein-coupled receptor E5) [SID152148186] gave: cell gain with vemurafenib 0.1; lactate per cell with vemurafenib 1.42.
For LINC01587 (long independently transcribed non-coding RNA 1587) [SID134316370], the entry reads cell gain with vemurafenib 0.94; lactate per cell with vemurafenib 0.76.
After knock-down of KRT15 (keratin 15) [SID135622182], the record shows cell gain with vemurafenib 1; lactate per cell with vemurafenib 1.12.
For LIN28B (lin-28 RNA binding posttranscriptional regulator B) [SID152152711] the deposit lists cell gain with vemurafenib 0.84; lactate per cell with vemurafenib 1.09.
After knock-down of ATP6AP2 (ATPase H+ transporting accessory protein 2) [SID134317863], the record shows cell gain with vemurafenib 0.4; lactate per cell with vemurafenib 0.78.
Silencing of PIANP (PILR alpha associated neural protein) [SID134320368] gave: cell gain with vemurafenib 0.41; lactate per cell with vemurafenib 1.39.
With knock-down of EBAG9 (estrogen receptor binding site associated antigen 9) [SID134325069], the screen gave cell gain with vemurafenib 0.38; lactate per cell with vemurafenib 1.08.
Knock-down of KCNH3 (potassium voltage-gated channel subfamily H member 3) [SID134315199] gave: cell gain with vemurafenib 1.21; lactate per cell with vemurafenib 0.46.
For RAB11FIP5 (RAB11 family interacting protein 5) [SID152147339], the entry reads cell gain with vemurafenib 0.45; lactate per cell with vemurafenib 1.63.
With knock-down of KRT37 (keratin 37) [SID135622139], the screen gave cell gain with vemurafenib 0.54; lactate per cell with vemurafenib 1.21.
For AMER1 (APC membrane recruitment protein 1) [SID135623077] the deposit lists cell gain with vemurafenib 0.24; lactate per cell with vemurafenib 1.48.
Depletion of ARHGAP42 (Rho GTPase activating protein 42) [SID134317757] came out at: cell gain with vemurafenib 0.31; lactate per cell with vemurafenib 1.94.
Against MAPK8IP1 (mitogen-activated protein kinase 8 interacting protein 1) [SID56478708] the deposit lists cell gain with vemurafenib 0.62; lactate per cell with vemurafenib 0.78.
Knock-down of LRRC42 (leucine rich repeat containing 42) [SID134322544] came out at: cell gain with vemurafenib 0.82; lactate per cell with vemurafenib 0.83.
NANOS2 (nanos C2HC-type zinc finger 2) [SID135624959] showed cell gain with vemurafenib 0.8; lactate per cell with vemurafenib 1.02.
With knock-down of TAF1L (TATA-box binding protein associated factor 1 like) [SID152155360] the results were cell gain with vemurafenib 0.5; lactate per cell with vemurafenib 0.34.
Depletion of NOXA1 (NADPH oxidase activator 1) [SID134326440] gave: cell gain with vemurafenib 0.27; lactate per cell with vemurafenib 0.39.
DUOXA2 (dual oxidase maturation factor 2) [SID135625098] showed cell gain with vemurafenib 0.55; lactate per cell with vemurafenib 1.07.
Against KCNJ3 (potassium inwardly rectifying channel subfamily J member 3) [SID134311666], the values are cell gain with vemurafenib 0.73; lactate per cell with vemurafenib 0.6.
For B3GAT1 (beta-1,3-glucuronyltransferase 1) [SID135622417] the deposit lists cell gain with vemurafenib 0.47; lactate per cell with vemurafenib 1.08.
Against SNU13 (small nuclear ribonucleoprotein 13) [SID152152358] the deposit lists cell gain with vemurafenib 0.63; lactate per cell with vemurafenib 1.43.
Against ALKBH1 (alkB homolog 1, histone H2A dioxygenase) [SID152151553], the values are cell gain with vemurafenib 0.86; lactate per cell with vemurafenib 0.68.
